Results deposited as PubChem BioAssay AID1259308 (NCATS, 2017).
The deposit covers about 59,000 reagents; this is a part drawn at random. About 1,510 of them (2.6%) count as active. 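Calls use total luciferase alone and ignore viability, so some active siRNAs may act by altering cell number.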

- Aim: 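Candidate targets for better recombinant protein yield in mammalian cells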 (primary screen)
- System: human HEK293 embryonic kidney cells stably expressing firefly luciferase (HEK-CMV-Luc2-Hygro)
- Reagent: single siRNA against human genes, 0.8 pmol siRNA per well
- Timing: 72 h
- Measured: 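Luciferase light (ONE-Glo) measured on one replicate plate set and viability (CellTiter-Glo) on the other, scaled to a negative control siRNA, with robust z-scores and luciferase per cell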
- Direction: total luciferase, z-score and total luciferase, % of control: higher = more reporter protein produced; luciferase per cell, z-score: higher = more reporter output per viable cell; viable cells, % of control: higher = more viable cells
- Active means: 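Active when the median/MAD z-score for overall luciferase is greater than 3; a gene was taken forward for validation with new siRNAs if at least two of its three siRNAs passed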
- Meaning of the calls: active = raised luciferase; inactive = no rise

| target gene | PubChem SID | total luciferase, z-score | total luciferase, % of control | luciferase per cell, z-score | viable cells, % of control | Call |
| --- | --- | --- | --- | --- | --- | --- |
| PRPF38B | SID160742989 | 0.119 | 84.3 | 0.0493 | 92.9 | inactive |
| PRPF38B | SID160742990 | -0.86 | 64.8 | 0.216 | 68.4 | inactive |
| PRPF38B | SID160742991 | -0.922 | 63.6 | -0.7 | 85.4 | inactive |
| SUGT1 | SID160729492 | -0.485 | 72.2 | -0.552 | 93.3 | inactive |
| SUGT1 | SID160729493 | -0.472 | 72.5 | -0.534 | 93.2 | inactive |
| SUGT1 | SID160729494 | -0.0733 | 80.4 | -0.1 | 92.3 | inactive |
| DTNA | SID160730726 | 1.76 | 117 | 0.79 | 106 | inactive |
| DTNA | SID160756918 | -1.05 | 60.9 | -0.211 | 71.9 | inactive |
| DTNA | SID160756927 | -0.288 | 76.2 | -0.646 | 101 | inactive |
| WIZ | SID160746912 | 0.328 | 88.4 | 0.0446 | 97.7 | inactive |
| WIZ | SID160746913 | -1.68 | 48.5 | -1.9 | 89.4 | inactive |
| WIZ | SID160746915 | 1.1 | 104 | 1.66 | 74.9 | inactive |
| TMEM252 | SID160760355 | 2.27 | 127 | 1.53 | 94.9 | inactive |
| TMEM252 | SID160760356 | 0.674 | 95.3 | 1.21 | 77.5 | inactive |
| TMEM252 | SID160760358 | 1.42 | 110 | 0.308 | 114 | inactive |
| TYW2 | SID160731486 | 2.17 | 125 | 3.01 | 63.2 | inactive |
| TYW2 | SID160742810 | 0.368 | 89.2 | -0.421 | 111 | inactive |
| TYW2 | SID160742811 | 0.39 | 89.6 | 0.116 | 97.1 | inactive |
| SQSTM1 | SID160721037 | 0.885 | 99.5 | 0.636 | 94 | inactive |
| SQSTM1 | SID160721038 | -0.143 | 79 | 0.28 | 82 | inactive |
| SQSTM1 | SID160721039 | -0.744 | 67.1 | -1.43 | 109 | inactive |
| ZNF436-AS1 | SID160758754 | -0.821 | 65.6 | -0.0615 | 74.5 | inactive |
| ZNF436-AS1 | SID160758755 | 1.83 | 118 | 1.55 | 88 | inactive |
| ZNF436-AS1 | SID160758756 | -0.674 | 68.5 | -0.715 | 92.4 | inactive |

Sorted by “total luciferase, z-score” (highest first): some entries from above
| target gene | PubChem SID | total luciferase, z-score | total luciferase, % of control | luciferase per cell, z-score | viable cells, % of control | Call |
| --- | --- | --- | --- | --- | --- | --- |
| PRPF38B | SID160742989 | 0.119 | 84.3 | 0.0493 | 92.9 | inactive |
| PRPF38B | SID160742990 | -0.86 | 64.8 | 0.216 | 68.4 | inactive |
| PRPF38B | SID160742991 | -0.922 | 63.6 | -0.7 | 85.4 | inactive |
